Laboratory results reported in article PMC10609173, “Antiplasmodial and Antileishmanial Activities of a New Limonoid and Other Constituents from the Stem Bark of Khaya senegalensis” (Molecules, 2023).

How the values were obtained:
[1] = test system: chloroquine-sensitive 3D7 strain of Plasmodium falciparum (Pf3D7); assay: Antiplasmodial SYBR Green I fluorescence assay, Pf3D7 strain; format: cell-based; conditions: SI = CC50 (RAW)/IC50 (Pf3D7)
Excerpt: (§1) The parasite strains used in this study are continuously cultured at the Antimicrobial and Biocontrol Agents Unit of the University of Yaoundé I, and were graciously provided by BEI Resources (https://www.beiresources.org (accessed on 16 February 2019)). They comprise the Leishmania donovani strain (1S(MHOM/SD/62/1S), the multiresistant (PfDd2), and the chloroquine-sensitive (Pf3D7-(MRA-102)) strains of Plasmodium falciparum. RPMI 1640 media supplemented with 0.2% sodium bicarbonate (Sigma Aldrich, Billings, MT, USA), 0.5% Albumax II (Gibco), 1% hypoxanthine 100X (Gibco, Billings, MT, USA), 25 mM HEPES, and 0.04% gentamicin (Sigma Aldrich) was used to sustain P. falciparum strains in sterile petri dishes. Fresh red blood cells from healthy O^+ human volunteers were also added to the medium. These cells were suspended at 4% hematocrit (v/v) and incubated at 37 °C in a humidified environment with 5% CO2. To regularly maintain the culture, fresh medium was added to the culture every day. Thin blood smears stained with 10% Giemsa were used to microscopically monitor cell-cycle transition and parasitemia under immersion oil.
(§2) The antiplasmodial efficacy of the samples was evaluated using the SYBR Green I-based fluorescence assay, as previously reported by Smilkstein et al., on a sorbitol-synchronized ring stage culture of Plasmodium falciparum (PfDd2 and Pf3D7 strains). The test relies on the development of intense fluorescence following SYBR green binding to the exposed DNA found in wells containing healthy cells. Ninety microliters of parasites prepared with 1% hematocrit and 2% parasitemia and 10 μL of test sample extracts, fractions, isolated chemicals, chloroquine, and artemisinin were each added in triplicate into wells of a flat-bottomed microplate. The final test concentration values for the samples varied from 50 μg/mL-0.08 μg/mL and 100 μg/mL-0.16 μg/mL for extract/fractions. Following a 72 h incubation at 37 °C, 100 μL of SYBR Green I solution prepared with lysis buffer (0.2 μL of 10,000 SYBR Green I per mL of lysis buffer) made of EDTA (5 mM), Tris (20 mM; pH 7.5), Triton X-100 (0.08%; v/v), and saponin (0.008%; m/v) was added to each well. Fluorescence measurements were taken using an Infinite M200 microplate reader (Tecan, MT, USA) at emission and excitation wavelengths of 538 and 485 nm, respectively.
(§3) The resulting fluorescence readings were used to calculate the growth inhibition percentages relative to the negative control for each sample and for each of the tested doses. GraphPad Prism 8.0 software was used to generate concentration-response curves from the nonlinear regression fit to determine the median inhibitory or cytotoxic concentration (IC50/CC50). The resistance index (RI) for antiplasmodial tests was calculated as the ratio between the samples’ IC50 values for the chloroquine-sensitive strain 3D7 and the multiresistant strain Dd2 [69]. Inhibitors with an RI value below 1 were considered to act preferentially on the resistant strain. Based on each inhibitor’s antiparasitic efficacy (IC50) and cell toxicity (CC50), selectivity indices (SI) were calculated [SI = CC50 (RAW)/IC50 (Parasites)]. Samples were classified as poorly toxic to RAW cells if their SI values were greater than 10 [70].

[2] = test system: multidrug-resistant Dd2 strain of Plasmodium falciparum (PfDd2); assay: Antiplasmodial SYBR Green I fluorescence assay, PfDd2 strain; format: cell-based; conditions: for SI_PfDd2: SI = CC50 (RAW)/IC50 (PfDd2); for Resistance Index (RI): ratio between IC50 values for 3D7 and Dd2 strains
Excerpt: as §1, §2, §3

| Structure (SMILES) | SI_Pf3D7 [1] | SI_PfDd2 [2] | Resistance Index (RI) [2] |
| --- | --- | --- | --- |
| Oc1cc(O)c2c(c1)O[C@H](c1ccc(O)c(O)c1)[C@@H](O)C2 [Catechin (9), catechin] | >3.57 | – | – |
| C=C(C)[C@@H]1CC[C@]2(C(=O)O)CC[C@]3(C)[C@H](CC[C@@H]4[C@@]5(C)C[C@@H](O)[C@H](O)C(C)(C)[C@@H]5CC[C@]43C)[C@@H]12 [Alphitolic acid (3), alphitolic acid] | 0.24 | – | – |
| C=C1C2C(OC3CC(=O)OC4(C)COC(=O)CC4C32C)C(OC(=O)C(O)C(C)CC)C2(C)C(c3ccoc3)CC(=O)C12O (stereo not drawn) [Rohituka-3 (5), rohituka-3] | >5.88 | >25.13 | 0.23 |
| CC1(C)CC[C@]2(C(=O)O)CC[C@]3(C)C(=CCC4[C@@]5(C)C[C@@H](O)[C@H](O)C(CO)(CO)C5CC[C@]43C)C2[C@@H]1O (stereo partly drawn) [Bellericagenin B (2), bellericagenin B] | – | – | 0.31 |
| CC1(C)CC[C@]2(C(=O)O)CC[C@]3(C)C(=CC[C@@H]4[C@@]5(C)CC[C@H](O)C(C)(C)[C@@H]5CC[C@]43C)[C@@H]2C1 [Oleanolic acid (7), oleanolic acid] | ˃4.27 | ˃9.17 | 0.47 |
| C=C1[C@@H]2CC[C@@]3(C)[C@H](c4ccoc4)OC(=O)C[C@]13O[C@H]1CC(=O)C(C)(C)[C@H](CC(=O)OC)[C@]12C [Methylangolensate (4), methyl angolensate] | 0.44 | – | 0.12 |
| COc1ccc(-c2cc(=O)c3c(O)c(OC)c(OC)cc3o2)cc1OC [Belamcanidin (8), Belamcanidin] | >3.82 | >7.84 | 0.48 |
| COC(=O)[C@H](O)[C@@H]1[C@@]2(C)[C@H]3CC[C@@]4(C)[C@H](c5ccoc5)OC(=O)C[C@@]45O[C@H]4C(=O)[C@@]1(C)C[C@]2(OC(C)=O)[C@@H]4[C@@]35O [Khayanolide E (6), khayanolide E] | – | – | 0.24 |
